Measured values taken from PMC8763317.
Results are given in words; binding and its absence hold for the method and conditions named. Binding seen in cells or lysates may run through a third protein. These calls come from enrichment with a bait or labelling near it, and not all partners need be listed.

Sequences of proteins named here, by UniProt entry; tags and fusion partners are left off.
UniProt Q13547: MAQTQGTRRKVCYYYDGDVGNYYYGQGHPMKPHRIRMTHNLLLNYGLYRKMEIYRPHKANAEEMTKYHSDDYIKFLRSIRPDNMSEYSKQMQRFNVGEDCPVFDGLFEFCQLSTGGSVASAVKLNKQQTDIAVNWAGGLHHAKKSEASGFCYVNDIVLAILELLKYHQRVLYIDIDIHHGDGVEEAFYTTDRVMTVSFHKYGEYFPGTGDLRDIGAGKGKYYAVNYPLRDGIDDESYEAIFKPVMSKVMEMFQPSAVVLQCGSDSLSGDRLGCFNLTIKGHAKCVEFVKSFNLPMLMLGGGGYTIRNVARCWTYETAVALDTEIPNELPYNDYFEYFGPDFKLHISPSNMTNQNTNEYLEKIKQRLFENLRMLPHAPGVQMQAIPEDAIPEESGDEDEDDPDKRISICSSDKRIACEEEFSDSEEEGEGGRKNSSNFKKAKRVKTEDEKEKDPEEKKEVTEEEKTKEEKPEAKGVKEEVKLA

B1: Sin3B (protein, UniProt O75182 1-1162)
chain: MAHAGGGSGGSGAGGPAGRGLSGARWGRSGSAGHEKLPVHVEDALTYLDQVKIRFGSDPATYNGFLEIMKEFKSQSIDTPGVIRRVSQLFHEHPDLIVGFNAFLPLGYRIDIPKNGKLNIQSPLTSQENSHNHGDGAEDFKQQVPYKEDKPQVPLESDSVEFNNAISYVNKIKTRFLDHPEIYRSFLEILHTYQKEQLNTRGRPFRGMSEEEVFTEVANLFRGQEDLLSEFGQFLPEAKRSLFTGNGPCEMHSVQKNEHDKTPEHSRKRSRPSLLRPVSAPAKKKMKLRGTKDLSIAAVGKYGTLQEFSFFDKVRRVLKSQEVYENFLRCIALFNQELVSGSELLQLVSPFLGKFPELFAQFKSFLGVKELSFAPPMSDRSGDGISREIDYASCKRIGSSYRALPKTYQQPKCSGRTAICKELDHWTLLQGSWTDDYCMSKFKNTCWIPGYSAGVLNDTWVSFPSWSEDSTFVSSKKTPYEEQLHRCEDERFELDVVLETNLATIRVLESVQKKLSRMAPEDQEKFRLDDSLGGTSEVIQRRAIYRIYGDKAPEIIESLKKNPVTAVPVVLKRLKAKEEEWREAQQGFNKIWREQYEKAYLKSLDHQAVNFKQNDTKALRSKSLLNEIESVYDEHQEQHSEGRSAPSSEPHLIFVYEDRQILEDAAALISYYVKRQPAIQKEDQGTIHQLLHQFVPSLFFSQQLDLGASEESADEDRDSPQGQTTDPSERKKPAPGPHSSPPEEKGAFGDAPATEQPPLPPPAPHKPLDDVYSLFFANNNWYFFLRLHQTLCSRLLKIYRQAQKQLLEYRTEKEREKLLCEGRREKGSDPAMELRLKQPSEVELEEYYPAFLDMVRSLLEGSIDPTQYEDTLREMFTIHAYVGFTMDKLVQNIARQLHHLVSDDVCLKVVELYLNEKKRGAAGGNLSSRCVRAARETSYQWKAERCMADENCFKVMFLQRKGQVIMTIELLDTEEAQTEDPVEVQHLARYVEQYVGTEGASSSPTEGFLLKPVFLQRNLKKFRRRWQSEQARALRGEARSSWKRLVGVESACDVDCRFKLSTHKMVFIVNSEDYMYRRGTLCRAKQVQPLVLLRHHQHFEEWHSRWLEDNVTVEAASLVQDWLMGEEDEDMVPCKTLCETVHVHGLPVTRYRVQYSRRPASP
B2: ELMSAN1 (protein, UniProt Q6PJG2 1-1045)
chain: MNLQAQPKAQNKRKRCLFGGQEPAPKEQPPPLQPPQQSIRVKEEQYLGHEGPGGAVSTSQPVELPPPSSLALLNSVVYGPERTSAAMLSQQVASVKWPNSVMAPGRGPERGGGGGVSDSSWQQQPGQPPPHSTWNCHSLSLYSATKGSPHPGVGVPTYYNHPEALKREKAGGPQLDRYVRPMMPQKVQLEVGRPQAPLNSFHAAKKPPNQSLPLQPFQLAFGHQVNRQVFRQGPPPPNPVAAFPPQKQQQQQQPQQQQQQQQAALPQMPLFENFYSMPQQPSQQPQDFGLQPAGPLGQSHLAHHSMAPYPFPPNPDMNPELRKALLQDSAPQPALPQVQIPFPRRSRRLSKEGILPPSALDGAGTQPGQEATGNLFLHHWPLQQPPPGSLGQPHPEALGFPLELRESQLLPDGERLAPNGREREAPAMGSEEGMRAVSTGDCGQVLRGGVIQSTRRRRRASQEANLLTLAQKAVELASLQNAKDGSGSEEKRKSVLASTTKCGVEFSEPSLATKRAREDSGMVPLIIPVSVPVRTVDPTEAAQAGGLDEDGKGPEQNPAEHKPSVIVTRRRSTRIPGTDAQAQAEDMNVKLEGEPSVRKPKQRPRPEPLIIPTKAGTFIAPPVYSNITPYQSHLRSPVRLADHPSERSFELPPYTPPPILSPVREGSGLYFNAIISTSTIPAPPPITPKSAHRTLLRTNSAEVTPPVLSVMGEATPVSIEPRINVGSRFQAEIPLMRDRALAAADPHKADLVWQPWEDLESSREKQRQVEDLLTAACSSIFPGAGTNQELALHCLHESRGDILETLNKLLLKKPLRPHNHPLATYHYTGSDQWKMAERKLFNKGIAIYKKDFFLVQKLIQTKTVAQCVEFYYTYKKQVKIGRNGTLTFGDVDTSDEKSAQEEVEVDIKTSQKFPRVPLPRRESPSEERLEPKREVKEPRKEGEEEVPEIQEKEEQEEGRERSRRAAAVKATQTLQANESASDILILRSHESNAPGSAGGQASEKPREGTGKSRRALPFSEKKKKTETFSKTQNQENTFPCKKCGR

Target: HDAC1-BirA* (UniProt Q13547)
Assay: proximity labelling; BioID in HEK293T cells: BirA*-fused bait transiently transfected, 50 uM biotin for 18 hours; lysate sonicated, biotinylated proteins isolated on streptavidin agarose beads, trypsin digest, LC-MS/MS, label free quantitation; enrichment over BirA*-NLS control (Student's t-test, FDR 0.05, S0 = 2); triplicate or quadruplicate

Row | binding | Binder
1 | binds | B1
2 | binds | B2
